Source: PMC11398692
These are yes or no findings as the source states them, for the method shown. Binding seen in cells or lysates may run through a third protein. Some entries that bind do so weakly or less than the wild type.

Chains of the proteins cited; added tags and fusions are not shown.
UniProt P08670: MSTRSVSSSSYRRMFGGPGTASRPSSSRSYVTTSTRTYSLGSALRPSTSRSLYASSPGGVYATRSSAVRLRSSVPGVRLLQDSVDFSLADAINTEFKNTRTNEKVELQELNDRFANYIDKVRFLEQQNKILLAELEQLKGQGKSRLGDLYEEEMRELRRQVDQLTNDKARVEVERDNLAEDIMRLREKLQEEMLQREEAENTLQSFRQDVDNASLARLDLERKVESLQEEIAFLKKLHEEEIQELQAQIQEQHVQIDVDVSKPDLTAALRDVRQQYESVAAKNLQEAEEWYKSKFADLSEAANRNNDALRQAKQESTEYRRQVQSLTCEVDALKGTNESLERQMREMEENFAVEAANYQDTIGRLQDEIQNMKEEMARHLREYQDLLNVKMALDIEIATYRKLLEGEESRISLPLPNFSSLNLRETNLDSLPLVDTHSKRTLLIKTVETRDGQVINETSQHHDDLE
UniProt P31749: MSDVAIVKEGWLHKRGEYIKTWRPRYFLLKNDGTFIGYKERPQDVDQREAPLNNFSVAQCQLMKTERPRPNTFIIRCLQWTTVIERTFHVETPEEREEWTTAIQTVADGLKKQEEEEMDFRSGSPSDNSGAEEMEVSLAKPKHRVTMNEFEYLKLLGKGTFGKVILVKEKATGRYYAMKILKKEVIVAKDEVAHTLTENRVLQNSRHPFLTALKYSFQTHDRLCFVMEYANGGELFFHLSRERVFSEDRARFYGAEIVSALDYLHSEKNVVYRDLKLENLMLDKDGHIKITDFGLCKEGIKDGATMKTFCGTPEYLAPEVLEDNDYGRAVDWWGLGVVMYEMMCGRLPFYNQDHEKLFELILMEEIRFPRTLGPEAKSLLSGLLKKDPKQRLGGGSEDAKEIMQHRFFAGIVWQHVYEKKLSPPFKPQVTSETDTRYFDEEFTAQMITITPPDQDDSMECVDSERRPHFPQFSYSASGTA

Molecular target: vimentin (human (endogenous in HMEC-1)) (UniProt P08670)
Experiment: co-IP; lysates of negative control and live Tp-infected (6 hours) HMEC-1 cells; incubated overnight at 4°C with anti-vimentin antibody, anti-AKT1 antibody or control IgG; magnetic Protein A/G beads; Western blotting

Substance: AKT1 (from UniProt P31749 1-480) (enzyme)
- binding: binds
